A: 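Primary screen of methionyl-tRNA synthetase; the read-out is not stated. Target: Methionyl-tRNA synthetase (putative), Leishmania donovani (UniProt E9BF75). The test concentration is not given. The values are filed as inhibition. Size under these conditions: about 68,000 compounds, about 24 of them at 50% or above in at least one test.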
B: 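Assay on Mycobacterium tuberculosis, filed only as a heat shock assay from Cornell; the read-out is not stated. The concentration is filed as 10 mM, unlikely as a test dose, so the dose is not known. The record gives no direction; compounds that gave an IC50 in retests scored well above the rest, so higher reads as stronger inhibition. About 69,000 compounds were tested under these conditions; 1.4% (about 930) showed 50% or more at least once.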

Chains of the proteins cited; added tags and fusions are not shown.
UniProt E9BF75, entry or part of it: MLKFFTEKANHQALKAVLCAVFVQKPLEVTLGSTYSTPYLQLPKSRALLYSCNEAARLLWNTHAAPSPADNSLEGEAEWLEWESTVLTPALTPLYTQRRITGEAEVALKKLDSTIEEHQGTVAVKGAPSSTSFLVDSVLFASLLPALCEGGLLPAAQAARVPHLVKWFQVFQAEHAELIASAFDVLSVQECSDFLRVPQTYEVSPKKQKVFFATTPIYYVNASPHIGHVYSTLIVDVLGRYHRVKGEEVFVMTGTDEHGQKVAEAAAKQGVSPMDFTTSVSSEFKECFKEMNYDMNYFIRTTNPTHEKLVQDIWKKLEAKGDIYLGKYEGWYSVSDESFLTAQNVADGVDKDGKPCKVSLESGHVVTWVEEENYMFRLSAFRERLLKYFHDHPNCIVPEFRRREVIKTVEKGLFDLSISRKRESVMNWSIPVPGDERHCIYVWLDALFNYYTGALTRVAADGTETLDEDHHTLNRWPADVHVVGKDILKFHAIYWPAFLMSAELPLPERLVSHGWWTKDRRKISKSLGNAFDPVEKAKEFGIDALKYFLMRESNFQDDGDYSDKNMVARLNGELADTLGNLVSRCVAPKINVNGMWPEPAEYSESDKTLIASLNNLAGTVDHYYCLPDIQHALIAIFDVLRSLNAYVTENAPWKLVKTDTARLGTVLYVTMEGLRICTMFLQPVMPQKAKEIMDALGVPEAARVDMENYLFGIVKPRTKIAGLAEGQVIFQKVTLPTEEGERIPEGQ

Results are percentages, as filed. How 0% and 100% were set is not recorded. Most values in the screen are low, and negative values occur. This is an unselected part of the compounds tested. A dash means the value is not listed here; it may have been measured.

| SMILES | A | B |
|---|---|---|
| `Cc1cc(C)c2[nH]c(C(=O)NCCN3CCOC3=O)c(C)c2c1` | 9.804 | -7.609 |
| `[H][C@@]12CN(Cc3ccc(CCC)o3)C[C@]1(C(=O)O)CN(CC1CC1)C2=O` | - | -7.951 |
| `COC(=O)[C@@H]1C[C@@H](O)CN1Cc1ccn(-c2ccc(F)cc2)n1` | 15.41 | -166.8 |
| `Cc1ncc(-c2ccnc(N3CCC[C@@H]3CO)n2)c(-c2cccnc2)n1` | 15.78 | -17.67 |
| `NC(=O)CS(=O)(=O)Cc1ccc(OCc2ccc(F)cc2)cc1` | 12.53 | -15.99 |
| `O=S(=O)(Cc1ccon1)N1CCN(c2ccncc2Cl)CC1` | 25.54 | 1.06 |
| `Cn1cnc2c1CCN(CCCOc1ccc(S(C)(=O)=O)cc1)C2` | 7.436 | -42.27 |
| `C[C@@H](O)CNC(=O)c1nc(Cc2c(Cl)cccc2Cl)no1` | 19.84 | -5.587 |
| `[H][C@@]12OCCC[C@]1([H])N(C(C)=O)C[C@@H]2NC(=O)c1cscn1` | - | 9.621 |
| `Cc1cnn(CC2CCCN2C(=O)c2cc3ccccc3[nH]2)c1` (centres unmarked) | 19.44 | 5.537 |
| `Cn1nc(COc2cncnc2)c2c1CCN(Cc1ccco1)C2.O=C(O)C(F)(F)F` | - | -19.33 |
| `NCc1ccccc1Sc1ccc(O)cc1.O=C(O)/C=C\C(=O)O` | - | 19.21 |
| `Cc1nc(NCc2ccc(C)o2)cc(C2CCNCC2)n1` | 7.606 | -22.33 |
| `CC(C)(C)OC(=O)NC(C)(C)c1noc(Cn2ccnc2)n1` | 15.73 | -13.53 |
| `COCCN1CCC2(CCCN(C(=O)c3cnoc3C)C2)C1=O` (centres unmarked) | 4.5 | 9.335 |
| `CCc1nccn1C1CCCN(C(=O)c2ccn(-c3ccccc3)n2)C1` (centres unmarked) | 3.133 | -10.6 |
| `Cc1cccc(CN2C[C@H](NS(C)(=O)=O)[C@@H]3OCCC[C@@H]32)n1` | 11.3 | - |
| `CCc1cc(N2CCN3CCCCC3C2)n2nccc2n1` (centres unmarked) | 5.627 | 5.002 |
| `CC(Nc1ccc(CC(=O)N(C)C)cc1)C(=O)N(C)CCC#N` (centres unmarked) | 19.06 | -2.151 |
| `CC(=O)c1cc(CC(=O)N2CCCC2c2nc(C(C)C)no2)cs1` (centres unmarked) | 17.73 | 0.8572 |
| `COc1ccc(N(C(=O)c2ccc(C)nc2)C(C)C)cc1F` | 3.495 | -18.67 |
| `O=C(O)c1cc(S(=O)(=O)N2CCOc3ccccc32)cc(Cl)c1Cl` | 4.738 | 15.74 |
| `O=C(NCCNc1ncccn1)C1CCN(CC(F)(F)F)CC1` | 6.536 | 18.92 |
| `COc1ccc(CCN2C(=O)O[C@@H]3CN(C4CCSCC4)C[C@@H]32)cc1` | 11.25 | - |
| `COCCn1ccnc1CN1CCc2[nH]cnc2C1c1cccc(O)c1` (centres unmarked) | 18.06 | 0.6418 |
| `O=C1CSC(c2ccsc2)c2c(n(C3CCCC3)[nH]c2=O)N1` (centres unmarked) | 13.03 | -6.139 |
| `CC(=O)N1CCC(c2cnc(NC3CCOCC3)cn2)CC1` | 13.65 | 7.909 |
| `N#Cc1ccc(N2CCC(OCCc3ccccc3)CC2)nc1` | 11.63 | -10.42 |
| `COCCn1ccc2ccc(NC(=O)NCc3noc(C)n3)cc21` | 6.774 | 9.963 |
| `[H][C@]12C[C@H](C(=O)NC)N(S(C)(=O)=O)[C@@]1([H])CN(C(=O)c1ccsc1)C2` | - | 0.3136 |
| `CCS(=O)(=O)N1CCC2(C1)C(=O)N(C)CCN2Cc1ccncc1` (centres unmarked) | 6.452 | - |
| `NCc1cn(-c2ccccc2C(=O)NCc2ccccc2Cl)cn1` | 1.695 | -15.93 |
| `COCCN(Cc1sccc1C)C(=O)C1CCCN(C(N)=O)C1` (centres unmarked) | 4.124 | 0.8413 |
| `Cc1cccnc1CNC(=O)CC1C(=O)NCCN1CC(C)(C)C` (centres unmarked) | 4.077 | 9.025 |
| `c1coc(-c2nc(CNCCn3cccn3)cs2)c1` | 23.46 | -1.03 |
| `COc1cccc(-c2cc(NCc3nc(C)cs3)n(C)n2)c1` | 10.64 | -9.948 |
| `CCc1noc(C(C)N2CCc3c(ncn3C3CC3)C2)n1` (centres unmarked) | 4.336 | -19.48 |
| `O=C(O)C(F)(F)F.[H][C@@]12COC[C@]1(c1nc(C)no1)CN(C(=O)CN(C)C)C2` | - | 15.78 |
| `Cc1nccn1-c1cc(CNC(=O)N2CCSCC2)ccn1` | 12.37 | -21.2 |
| `CNC(=O)CC1CCN(C(=O)NCC2(c3ccccc3F)CC2)CC1` | 6.425 | -2.753 |
| `COCCn1ccnc1C1CCN(C(=O)c2cccc(COC)n2)CC1` | -7.018 | -41.26 |
| `CNCCc1nc2cc(Cl)ccc2[nH]1.Cl.Cl` | - | -9.937 |
| `CN1C(=O)CC(c2cnn(C)c2)C12CCN(C(=O)c1ccno1)CC2` (centres unmarked) | 8.667 | -17.05 |
| `c1ccc(-c2nc(CNC3CCc4ncnn4C3)co2)cc1` (centres unmarked) | 14.17 | -10.43 |
| `O=c1[nH]c(COc2ccc(Cl)cc2)nc2c1CCNC2` | 8.629 | -16.57 |
| `Cc1nc(C)n(CC2CCCN2Cc2nc(N)c3ccccc3n2)n1` (centres unmarked) | 11.19 | 90.98 |

Repeated from the top, 6 entries:

{"smiles": "Cc1cc(C)c2[nH]c(C(=O)NCCN3CCOC3=O)c(C)c2c1", "A": 9.804, "B": -7.609}
{"smiles": "[H][C@@]12CN(Cc3ccc(CCC)o3)C[C@]1(C(=O)O)CN(CC1CC1)C2=O", "B": -7.951}
{"smiles": "COC(=O)[C@@H]1C[C@@H](O)CN1Cc1ccn(-c2ccc(F)cc2)n1", "A": 15.41, "B": -166.8}
{"smiles": "Cc1ncc(-c2ccnc(N3CCC[C@@H]3CO)n2)c(-c2cccnc2)n1", "A": 15.78, "B": -17.67}
{"smiles": "NC(=O)CS(=O)(=O)Cc1ccc(OCc2ccc(F)cc2)cc1", "A": 12.53, "B": -15.99}
{"smiles": "O=S(=O)(Cc1ccon1)N1CCN(c2ccncc2Cl)CC1", "A": 25.54, "B": 1.06}

From ChEMBL document CHEMBL3988442, “University of Dundee, Small-Polar-MMV Screening Library” (2021).